Experimental data reported in paper PMC11999743 (Journal of Analytical Methods in Chemistry, 2025).
Where a name gives a salt, the structure may show the parent alone. Read-outs that look alike come from different tables or passages of the source.

Assays:
[1] = Pharmacokinetic study in naive mice after intraperitoneal injection; details: 3 mg/kg
Experimental: Nine-week-old male Swiss mice (Janvier Labs, Le Genest-Saint-Isle, France), weighing 35–45 g at the time of experimentation, were used. […] Food and tap water were given ad libitum.
Their hind legs were depilated after a 1 min application of a commercial depilatory cream and rinsed with water. Subsequently, the mice were returned to their cages to allow for recovery and complete anesthesia washout. On the day of the experiment, an initial blood sample (20–30 μL) was collected by perforation of the saphenous vein from the mice.
For each treatment group, mice were subdivided into two cohorts, with blood samples collected at distinct time intervals after injection, totaling 14 time points for pharmacokinetic modeling. Compliance with regulatory directives prevented the collection of more than eight blood samples from individual animals. […] Blood samples were acquired using heparinized capillaries containing 2 μL of sodium heparin (Panpharma, France). After collection, the samples were transferred to Eppendorf tubes and centrifuged at 3000 g and 4°C for 10 min. The recovered plasma was then stored at −80°C until analysis. At the end of the experiments, the mice were euthanized by i.p. lethal injection (150 mg/kg) of sodium pentobarbital (Doléthal, Vétoquinol SA, France).
Pharmacokinetic analysis was carried out from the average concentration values at each time point using the Phoenix WinNonLin Version 8.4 software (Certara, Princeton NJ, USA). Pharmacokinetic parameters were determined from the plasma concentration-time data using a compartmental approach and include the total area under the plasma concentration-time curve (AUC0-∞), elimination half-life (t1/2elim), total clearance (CL/F), and volume of distribution (V). CL and V were uncorrected for the bioavailability (F).

[2] = guinea pig, intramuscular injection 0.4 mg/kg, one-compartment profile; cited from earlier work
[3] = male, Swiss, mouse, in vivo, ip

CN1[C@@H]2CC[C@H]1C[C@@H](OC(=O)C(CO)c1ccccc1)C2 (some centres unmarked) [Atropine, Atropine sulfate monohydrate]
AUC [1, 3]: 113 ng·h/mL | Cmax [1, 3]: 251 ± 5 ng/mL | Tmax ([1]; male, Swiss, mouse, in vivo, ip, T max, naive mice, plasma): 8.2 min | Time after which plasma concentrations were below the LLOQ ([1]; naive mice, i.p., LLOQ 0.5 ng/mL tiotropium, 1 ng/mL atropine): 120 min | Tmax [2]: less than 10 min
